Out of some 360,000 compounds screened, about 7,500 (2.1%) were called active. Inconclusive results, whose numbers are uncertain, are shown with a selection of clear calls. The call rests on the fitted dose curve; in most records, active means well fitted inhibition curve with a large enough effect; inconclusive means small, poorly fitted or top-dose-only effect, or effect the other way; inactive means flat fitted curve, though single readings scatter. A potency beside an inconclusive call is a rough fit, not a confirmed value.
Assay: Nrf2 qHTS screen for inhibitors; further: nearly all actives have a fitted effect of over 60% in size
Details: A549 ARE-Fluc reporter, luciferase luminescence, 18-24 h; series mostly up to 46 µM
Summary of the method: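 A549 ARE_Fluc cells (5000/well, 5% FBS OPTI-MEM) pre-incubated 2 h, then treated with compounds 18-24 h at 37C/5% CO2 in concentration-response. CellTiter-Fluor viability read first; BugLite luciferase luminescence after 15 min at room temperature gives Nrf2 activity.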
Potency means the concentration at half of the fitted maximal effect.

Question: Which Potency does the source give for `Cc1ccc(NC(=O)C2CCCN2S(=O)(=O)c2ccc3c(c2)CCCC(=O)N3)cc1Cl` (stereo not given) here?
Answer: inconclusive: 20.6 µM [falling, single point]

Question: For `O=c1nc(/C=C/c2ccc(Cl)cc2Cl)cc(C(F)(F)F)[nH]1`, which Potency is on record?
Answer: inconclusive: 10.3 µM [falling, partial curve, poor fit]

Question: For `CC(O)C1C=CC=CC(=O)OC2CC3OC4C5OC5(C)CCC4(COC(=O)C4OC4(C)C(O)CO1)C2(C)C31CO1` (stereo not given), which Potency is on record?
Answer: active: 0.231 µM

Question: For `COc1ccccc1NC(=O)N(Cc1ccc2c(c1)OCO2)C1CCN(Cc2ccccc2)CC1`, which Potency is on record?
Answer: inconclusive: 6.51 µM [activator, single point]

Question: For `CC(=O)OC1C2CCC1C(N1CCCC1)CC2` (stereo not given), which Potency is on record?
Answer: inconclusive: 29.1 µM [activator, single point]

Question: With `N=Cc1c(O)n(-c2cccc(Cl)c2)c(=O)[nH]c1=O` as the compound, how does the Potency read?
Answer: inconclusive: 23.1 µM [falling, single point]

Question: With `CC(=O)C1(O)CCC2C3CCC4=C(Cl)C(=O)CCC4(C)C3CCC21C` (stereo not given) as the compound, how does the Potency read?
Answer: inactive

Question: Which Potency does the source give for `CCOc1ccc(N2C(=O)NC(=O)/C(=C\c3ccc(N4CCOCC4)cc3C)C2=O)cc1` here?
Answer: inconclusive: 11.6 µM [activator, partial curve, poor fit]

Question: For `C[C@H]1[C@H](OC(=O)CCC(=O)NCc2ccc(C(=O)O)cc2)O[C@@H]2O[C@@]3(C)CC[C@H]4[C@H](C)CC[C@@H]1C24OO3`, which Potency is on record?
Answer: active: 20.6 µM

Question: Which Potency does the source give for `CC1CCCN1CCC(C(N)=O)(c1ccccc1)c1ccccc1` (stereo not given) here?
Answer: inactive

Question: For `CCOC(=O)N1CCN(c2ncc3c(n2)CC(c2ccccc2O)CC3=O)CC1` (stereo not given), which Potency is on record?
Answer: inconclusive: 18.4 µM [falling, single point]

Question: Which Potency does the source give for `Ic1ccccc1CN[C@@H]1C2CCN(CC2)[C@@H]1C(c1ccccc1)c1ccccc1` here?
Answer: inactive

Question: For `COc1ccc2[nH]cc(CCN=C(N)N)c2c1`, which Potency is on record?
Answer: inconclusive: 23.1 µM [activator, partial curve, poor fit]

Question: Which Potency does the source give for `CCn1c(P(C)(=O)O)nc2cc(NC(=O)c3ccccc3F)ccc21` here?
Answer: inactive

Question: For `Cc1ccc(-c2nc3ccc(C)cn3c2CC(=O)N(C)C)cc1`, which Potency is on record?
Answer: inactive

Question: With `CCCCn1c(O)c(C(C)=NC(C)c2ccccc2)c(=O)[nH]c1=O` (stereo not given) as the compound, how does the Potency read?
Answer: inconclusive: 13 µM [falling, partial curve, poor fit]

Question: For `Cc1cccc(C)c1NC(=O)c1cccn(Cc2ccc3c(c2)OC(F)(F)O3)c1=O`, which Potency is on record?
Answer: inconclusive: 16.4 µM [falling, single point]

Question: For `Cn1cc(C(=O)N2CCC3(CC2)OCCO3)c2c3ccccc3n(C)c2c1=O`, which Potency is on record?
Answer: inactive

Question: For `C=Cc1cc(OC)c2c(c1)c(=O)oc1c2cc(OC)c2c(O)ccc(C3OC(C)C(O)C(C)(O)C3O)c21` (stereo not given), which Potency is on record?
Answer: active: 2.06 µM

Question: With `Nc1ccc(N=Nc2ccccc2)cc1` as the compound, how does the Potency read?
Answer: inconclusive: 29.1 µM [activator, single point]

Question: With `Nc1c(C(=O)Nc2ccc(Cl)cc2)sc2nc3c(cc12)N1CCC3CC1` as the compound, how does the Potency read?
Answer: inconclusive: 29.1 µM [falling, single point]

Question: Which Potency does the source give for `N#C/C(=C(/O)c1ccc(S(=O)(=O)N(CCCl)CCCl)cc1)c1nc2ccccc2[nH]1` here?
Answer: inconclusive: 29.1 µM [activator, single point]

Question: With `Cn1c(=O)oc2cc(S(=O)(=O)N3CCC(C(=O)N4CC=C(c5ccccc5)CC4)CC3)ccc21` as the compound, how does the Potency read?
Answer: inconclusive: 18.4 µM [falling, single point]

Question: For `CCOC(=O)C1=Nc2ccccc2/C1=C\c1c(O)n(C)c(=O)n(C)c1=O`, which Potency is on record?
Answer: inactive

Question: With `CCCc1cc(=O)oc2cc(OCC(=O)N3CCN(Cc4ccc5c(c4)OCO5)CC3)ccc12` as the compound, how does the Potency read?
Answer: inconclusive: 29.1 µM [falling, partial curve, poor fit]

Question: With `CCCNC1=C(C)C(=O)C2=C(C1=O)C(COC(N)=O)[C@]1(OC)C3NC3CN21` (stereo not given in full) as the compound, how does the Potency read?
Answer: inconclusive: 13 µM [falling, partial curve, poor fit]

Question: Which Potency does the source give for `CN1CCN(c2nc(N(C)C)oc(=O)c2C#N)CC1` here?
Answer: inconclusive: 3.26 µM [activator, full curve, poor fit]

Question: For `CCCOC(=O)c1c(C)oc2c1cc(NS(=O)(=O)c1ccc(OCC)cc1)c1ccccc12`, which Potency is on record?
Answer: inconclusive: 2.91 µM [activator, full curve]

Question: With `CCOC(=O)c1c(-c2ccc(OC)cc2)oc2ccc(OC(=O)N(C)C)cc12` as the compound, how does the Potency read?
Answer: inconclusive: 32.6 µM [falling, single point]

Question: Which Potency does the source give for `Cc1ccsc1/C=N/NC(=O)c1cccc(S(=O)(=O)Nc2ccccc2Cl)c1` here?
Answer: inconclusive: 29.1 µM [falling, single point]

Question: Which Potency does the source give for `CCCCCCn1c(O)c(C=NC2CCN(Cc3ccccc3)CC2)c(=O)[nH]c1=O` here?
Answer: inconclusive: 18.4 µM [falling, partial curve, poor fit]

Question: For `COC(=O)C1=C(c2ccc(S(C)(=O)=O)cc2)C[C@@H]2CC[C@H]1N2C`, which Potency is on record?
Answer: inconclusive: 1.84 µM [activator, partial curve, poor fit]

Question: Which Potency does the source give for `COC(=O)C1=C(c2ccc(F)cc2OCc2ccccc2)C[C@@H]2CC[C@H]1N2C(=O)NCc1ccc(C)cc1` here?
Answer: active: 14.6 µM

Question: With `Cc1ccc(C(C)C)cc1OCC(=O)Nc1nnc(C2CC2)s1` as the compound, how does the Potency read?
Answer: inconclusive: 2.31 µM [activator, full curve]

Question: With `COc1ccc2c(c1)CC1(CN2C)C(=O)NC(=O)N(CCc2ccccc2)C1=O` (stereo not given) as the compound, how does the Potency read?
Answer: inactive

Question: Which Potency does the source give for `CC(=NCCN1CCCCC1)c1c(O)n(-c2ccc(Cl)cc2)c(=O)[nH]c1=O` here?
Answer: inactive

Question: For `CC(Oc1ccc(Cl)cc1Cl)C(=O)Nc1ccc(S(=O)(=O)Nc2cnc3ccccc3n2)cc1` (stereo not given), which Potency is on record?
Answer: inconclusive: 29.1 µM [falling, single point]

Question: For `Cc1ccc2c(c1)C(c1ccccc1)=NCC(=O)N2C`, which Potency is on record?
Answer: active: 9.2 µM

Question: For `CCCCn1c(=O)c(C(=O)NCCc2ccccc2)c(O)c2ccccc21`, which Potency is on record?
Answer: inconclusive: 29.1 µM [falling, single point]

Question: With `Nc1ccc2c(c1)Cc1ccccc1-2` as the compound, how does the Potency read?
Answer: inconclusive: 10.3 µM [activator, partial curve, poor fit]

Question: Which Potency does the source give for `c1ccc(N2CCN(c3ncnc4c3nc3n4CCCCC3)CC2)cc1` here?
Answer: active: 23.1 µM

Question: Which Potency does the source give for `O=C1NC(=O)C(CCc2ccncc2)(Cc2cccc(Cl)c2Cl)C(=O)N1c1ccc(Br)cc1` (stereo not given) here?
Answer: inactive

Question: Which Potency does the source give for `COc1ccc(C=C(C#N)c2ccc(OC)cc2)cc1` here?
Answer: inconclusive: 8.2 µM [activator, partial curve]

Question: For `O=C(c1cc(-c2cccnc2)nc2ccccc12)N1CCC2(CC1)OCCO2`, which Potency is on record?
Answer: inconclusive: 3.26 µM [activator, partial curve, poor fit]

Question: Which Potency does the source give for `Cc1csc(NC(=O)C2CCCN(S(=O)(=O)c3ccc4c(c3)oc(=O)n4C)C2)n1` (stereo not given) here?
Answer: inconclusive: 32.6 µM [falling, single point]

Question: For `CCN(CC)c1ccc(C2C(C(N)=O)=C(C)Nc3nc(SCc4ccccc4)nn32)cc1` (stereo not given), which Potency is on record?
Answer: inconclusive: 6.51 µM [falling, single point]

Question: For `Cc1ccccc1C(=O)Nc1ccc2nc(SCC(=O)N(C)c3ccccc3)sc2c1`, which Potency is on record?
Answer: inconclusive: 29.1 µM [falling, single point]

Question: For `CC(C)c1ccc(Cc2cnc(NC(=O)c3ccc4c(c3)CC(c3ccccc3)OC4=O)s2)cc1` (stereo not given), which Potency is on record?
Answer: inconclusive: 2.06 µM [falling, full curve]

Question: For `CN(C)CC1Oc2ccccc2OC1(O)c1ccccc1` (stereo not given), which Potency is on record?
Answer: active: 14.6 µM

Question: With `COc1ccc(CN2CCN(c3ncnc4sc5c(c34)CCCC5)CC2)cc1F` as the compound, how does the Potency read?
Answer: active: 10.3 µM

Question: For `C[C@]12CCCCC1=CC(=O)C1C2CC[C@@]2(C)C1C[C@@H](F)[C@@H]2O` (stereo not given in full), which Potency is on record?
Answer: inactive

Question: Which Potency does the source give for `COc1ccc(-c2nnc3sc(C4CCCCC4)nn23)cc1OC` here?
Answer: inconclusive: 16.4 µM [falling, partial curve]

Question: Which Potency does the source give for `CC(=O)O[C@H]1C(=O)[C@@]2(C)C([C@H](OC(=O)c3ccccc3)[C@]3(O)C[C@H](OC(=O)[C@H](O)[C@@H](NC(=O)Cc4ccccc4)c4ccccc4)C(C)=C1C3(C)C)[C@]1(OC(C)=O)CO[C@@H]1C[C@@H]2O` (stereo not given in full) here?
Answer: inactive

Question: With `CCc1ccc(CNCCc2ccc(F)cc2)cc1` as the compound, how does the Potency read?
Answer: inactive

Question: For `C[C@]12CCC(=O)C=C1C=CC1C2CC[C@@]2(C)C1CC[C@@H]2O` (stereo not given in full), which Potency is on record?
Answer: inactive

Question: For `C=CCOC(=O)C1C(C(=O)O)C2(Cl)C(Cl)=C(Cl)C1(Cl)C2(Cl)Cl` (stereo not given), which Potency is on record?
Answer: inconclusive: 29.1 µM [falling, single point]

Question: Which Potency does the source give for `CSc1nnc(OC(=O)N(C)C)n1-c1ccc(Cl)cc1` here?
Answer: inconclusive: 11.6 µM [falling, partial curve, poor fit]

Question: For `Cc1ccc(/C=C2\C(=O)NC(=S)N(c3ccc(F)cc3)C2=O)o1`, which Potency is on record?
Answer: inactive

Question: For `COc1ccc(CNC(=O)Cn2c(=O)oc3cc(S(=O)(=O)N4CCCC4)ccc32)cc1`, which Potency is on record?
Answer: inconclusive: 10.3 µM [falling, partial curve, poor fit]

Question: Which Potency does the source give for `CCOC(=O)CN1C(=O)N[C@@H](c2cccc(C(F)(F)F)c2)C(C(C)=O)=C1C` here?
Answer: inconclusive: 6.51 µM [activator, partial curve, poor fit]

Question: With `CCCCCCC[n+]1ccc(-c2cc[n+](CCCCCCC)cc2)cc1` as the compound, how does the Potency read?
Answer: active: 2.59 µM

Question: Which Potency does the source give for `COC(=O)C1=C(c2ccc(OC(F)(F)F)cc2)C[C@@H]2CC[C@H]1N2C(=O)N1CCCCC1` here?
Answer: inconclusive: 29.1 µM [falling, single point]

Question: For `CN1C(=O)NC(=O)/C(=C\C=C\c2ccccc2[N+](=O)[O-])C1=O`, which Potency is on record?
Answer: inconclusive: 29.1 µM [falling, single point]

Question: For `COc1cc(/C=C/[N+](=O)[O-])ccc1O`, which Potency is on record?
Answer: inconclusive: 29.1 µM [falling, single point]

Source: PubChem BioAssay AID504444 (National Center for Advancing Translational Sciences (NCATS), 2011)
